Data from the supplement of paper PMC12823440, “Inhibitors supercharge kinase turnover through native proteolytic circuits” (Nature, 2025).
Structures can show the parent of a compound that is named as a salt. Some of the results follow. The calls rarely recur for the same compound in another form.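 In K562 cells expressing nanoluciferase-fused kinases, luminescence was recorded at 4 h intervals between 2 and 18 h, normalized as percent of control with DMSO at 100% and a positive control at 0%. A significant (2 sigma) signal drop marks a time point as decreased. The authors' rule for a hit is not shown and takes in more than the number of time points.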

Chains of the proteins cited; added tags and fusions are not shown. Lines headed by an entry give the natural chain unless they say otherwise; changes in a name come on top.
UniProt P00519, whole entry: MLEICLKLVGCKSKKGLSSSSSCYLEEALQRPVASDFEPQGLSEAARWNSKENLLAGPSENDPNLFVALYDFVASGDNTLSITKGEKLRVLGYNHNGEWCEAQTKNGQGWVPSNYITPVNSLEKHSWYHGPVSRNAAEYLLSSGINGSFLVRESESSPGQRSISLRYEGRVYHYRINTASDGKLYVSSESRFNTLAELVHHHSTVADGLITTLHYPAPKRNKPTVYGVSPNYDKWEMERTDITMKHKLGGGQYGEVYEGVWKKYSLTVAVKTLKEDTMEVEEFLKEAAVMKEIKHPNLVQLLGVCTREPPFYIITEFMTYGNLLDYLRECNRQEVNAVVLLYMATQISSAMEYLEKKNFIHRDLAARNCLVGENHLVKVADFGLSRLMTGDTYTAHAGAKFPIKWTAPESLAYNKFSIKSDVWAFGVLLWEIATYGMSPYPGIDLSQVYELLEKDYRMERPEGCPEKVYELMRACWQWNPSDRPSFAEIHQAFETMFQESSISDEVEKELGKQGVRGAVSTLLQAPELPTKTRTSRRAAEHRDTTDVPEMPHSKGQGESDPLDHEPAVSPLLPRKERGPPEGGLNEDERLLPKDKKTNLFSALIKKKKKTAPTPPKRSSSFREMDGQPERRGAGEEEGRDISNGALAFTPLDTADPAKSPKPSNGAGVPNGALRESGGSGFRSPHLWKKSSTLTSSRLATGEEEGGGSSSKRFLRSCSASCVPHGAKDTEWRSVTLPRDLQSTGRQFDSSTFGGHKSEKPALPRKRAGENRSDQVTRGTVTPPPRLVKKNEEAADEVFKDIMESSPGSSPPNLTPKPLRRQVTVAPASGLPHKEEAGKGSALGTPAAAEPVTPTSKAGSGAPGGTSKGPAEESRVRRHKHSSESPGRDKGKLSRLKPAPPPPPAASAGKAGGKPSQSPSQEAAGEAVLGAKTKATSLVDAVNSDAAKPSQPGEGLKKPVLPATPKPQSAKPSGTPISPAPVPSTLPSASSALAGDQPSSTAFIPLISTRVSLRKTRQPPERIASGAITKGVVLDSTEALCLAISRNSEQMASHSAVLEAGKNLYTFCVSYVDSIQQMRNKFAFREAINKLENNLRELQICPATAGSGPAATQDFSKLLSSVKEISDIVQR
UniProt P31749: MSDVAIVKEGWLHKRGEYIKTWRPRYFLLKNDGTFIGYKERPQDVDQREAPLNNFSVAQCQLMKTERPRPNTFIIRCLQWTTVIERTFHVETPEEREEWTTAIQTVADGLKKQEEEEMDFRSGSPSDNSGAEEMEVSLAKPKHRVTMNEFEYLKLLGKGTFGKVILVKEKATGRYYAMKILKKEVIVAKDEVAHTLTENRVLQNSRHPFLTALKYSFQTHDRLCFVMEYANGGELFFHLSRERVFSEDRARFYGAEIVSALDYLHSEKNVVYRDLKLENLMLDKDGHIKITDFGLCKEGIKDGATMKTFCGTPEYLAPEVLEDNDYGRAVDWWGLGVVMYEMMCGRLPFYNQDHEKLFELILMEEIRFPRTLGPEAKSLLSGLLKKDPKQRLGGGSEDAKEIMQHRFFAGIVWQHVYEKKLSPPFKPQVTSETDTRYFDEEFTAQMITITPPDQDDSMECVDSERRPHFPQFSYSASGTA
UniProt Q9UM73: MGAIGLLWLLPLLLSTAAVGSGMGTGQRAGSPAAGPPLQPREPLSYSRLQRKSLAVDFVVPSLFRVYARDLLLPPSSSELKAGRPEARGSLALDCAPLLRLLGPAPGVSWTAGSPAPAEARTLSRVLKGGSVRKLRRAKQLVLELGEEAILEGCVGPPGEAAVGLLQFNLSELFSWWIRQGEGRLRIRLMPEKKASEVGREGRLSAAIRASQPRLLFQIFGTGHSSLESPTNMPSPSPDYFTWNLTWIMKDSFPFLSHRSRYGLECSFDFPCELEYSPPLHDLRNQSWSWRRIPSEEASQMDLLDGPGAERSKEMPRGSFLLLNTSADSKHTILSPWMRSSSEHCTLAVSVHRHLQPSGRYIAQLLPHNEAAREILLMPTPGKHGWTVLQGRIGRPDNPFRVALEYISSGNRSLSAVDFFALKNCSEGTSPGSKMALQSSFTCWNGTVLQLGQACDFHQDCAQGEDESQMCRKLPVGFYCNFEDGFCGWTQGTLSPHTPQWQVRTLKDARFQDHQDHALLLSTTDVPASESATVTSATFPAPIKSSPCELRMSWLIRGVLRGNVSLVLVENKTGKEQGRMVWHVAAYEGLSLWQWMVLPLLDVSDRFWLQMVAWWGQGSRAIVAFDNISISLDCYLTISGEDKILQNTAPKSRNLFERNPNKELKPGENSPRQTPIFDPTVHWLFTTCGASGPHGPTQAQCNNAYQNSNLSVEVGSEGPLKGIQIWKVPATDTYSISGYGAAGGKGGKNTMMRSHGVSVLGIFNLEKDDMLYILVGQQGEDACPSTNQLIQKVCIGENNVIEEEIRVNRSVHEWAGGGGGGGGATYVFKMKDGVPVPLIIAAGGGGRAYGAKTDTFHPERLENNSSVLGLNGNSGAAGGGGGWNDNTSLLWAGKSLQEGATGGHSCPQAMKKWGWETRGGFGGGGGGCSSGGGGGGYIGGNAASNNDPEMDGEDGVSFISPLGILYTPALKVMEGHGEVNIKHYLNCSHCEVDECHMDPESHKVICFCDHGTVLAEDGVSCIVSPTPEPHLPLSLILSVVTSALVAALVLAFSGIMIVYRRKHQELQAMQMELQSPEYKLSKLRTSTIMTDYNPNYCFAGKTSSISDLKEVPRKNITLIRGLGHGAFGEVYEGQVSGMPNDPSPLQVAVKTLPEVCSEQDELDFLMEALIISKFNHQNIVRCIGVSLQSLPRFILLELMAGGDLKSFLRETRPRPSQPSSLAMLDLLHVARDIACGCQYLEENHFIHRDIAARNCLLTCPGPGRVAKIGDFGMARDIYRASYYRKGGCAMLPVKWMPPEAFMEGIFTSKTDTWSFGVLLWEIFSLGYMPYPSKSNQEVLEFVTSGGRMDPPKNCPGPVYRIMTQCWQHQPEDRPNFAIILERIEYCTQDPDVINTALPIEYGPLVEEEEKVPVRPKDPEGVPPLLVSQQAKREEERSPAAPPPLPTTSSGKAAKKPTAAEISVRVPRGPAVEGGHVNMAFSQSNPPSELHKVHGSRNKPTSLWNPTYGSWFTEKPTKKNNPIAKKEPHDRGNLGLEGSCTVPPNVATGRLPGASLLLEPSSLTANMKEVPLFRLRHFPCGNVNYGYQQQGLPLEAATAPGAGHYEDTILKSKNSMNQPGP
UniProt O14965: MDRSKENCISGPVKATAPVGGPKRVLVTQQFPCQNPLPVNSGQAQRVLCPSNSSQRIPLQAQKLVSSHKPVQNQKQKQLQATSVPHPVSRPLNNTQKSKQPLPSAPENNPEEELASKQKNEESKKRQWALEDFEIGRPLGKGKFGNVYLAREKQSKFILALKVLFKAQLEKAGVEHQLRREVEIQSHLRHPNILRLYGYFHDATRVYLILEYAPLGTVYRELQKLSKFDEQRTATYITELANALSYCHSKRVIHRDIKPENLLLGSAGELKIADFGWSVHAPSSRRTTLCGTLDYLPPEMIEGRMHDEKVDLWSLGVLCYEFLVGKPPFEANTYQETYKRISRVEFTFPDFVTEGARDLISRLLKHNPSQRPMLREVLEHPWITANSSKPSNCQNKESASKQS
UniProt Q96GD4, whole entry: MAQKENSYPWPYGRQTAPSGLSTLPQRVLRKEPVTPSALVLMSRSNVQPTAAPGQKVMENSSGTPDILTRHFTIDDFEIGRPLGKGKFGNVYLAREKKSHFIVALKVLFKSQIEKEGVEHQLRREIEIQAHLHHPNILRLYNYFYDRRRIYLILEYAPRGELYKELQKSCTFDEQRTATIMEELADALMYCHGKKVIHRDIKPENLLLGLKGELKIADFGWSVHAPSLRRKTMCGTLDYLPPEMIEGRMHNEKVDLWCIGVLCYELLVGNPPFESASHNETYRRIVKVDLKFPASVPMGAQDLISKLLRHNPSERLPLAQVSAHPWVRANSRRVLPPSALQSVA
UniProt Q9UQB9: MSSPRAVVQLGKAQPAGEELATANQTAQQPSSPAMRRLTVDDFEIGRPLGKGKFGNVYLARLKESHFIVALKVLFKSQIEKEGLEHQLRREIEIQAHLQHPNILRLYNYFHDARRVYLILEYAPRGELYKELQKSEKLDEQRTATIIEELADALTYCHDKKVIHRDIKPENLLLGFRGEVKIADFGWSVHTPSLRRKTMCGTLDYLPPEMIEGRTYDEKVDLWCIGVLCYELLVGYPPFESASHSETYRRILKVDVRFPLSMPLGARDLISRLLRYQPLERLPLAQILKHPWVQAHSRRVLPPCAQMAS
UniProt P51451: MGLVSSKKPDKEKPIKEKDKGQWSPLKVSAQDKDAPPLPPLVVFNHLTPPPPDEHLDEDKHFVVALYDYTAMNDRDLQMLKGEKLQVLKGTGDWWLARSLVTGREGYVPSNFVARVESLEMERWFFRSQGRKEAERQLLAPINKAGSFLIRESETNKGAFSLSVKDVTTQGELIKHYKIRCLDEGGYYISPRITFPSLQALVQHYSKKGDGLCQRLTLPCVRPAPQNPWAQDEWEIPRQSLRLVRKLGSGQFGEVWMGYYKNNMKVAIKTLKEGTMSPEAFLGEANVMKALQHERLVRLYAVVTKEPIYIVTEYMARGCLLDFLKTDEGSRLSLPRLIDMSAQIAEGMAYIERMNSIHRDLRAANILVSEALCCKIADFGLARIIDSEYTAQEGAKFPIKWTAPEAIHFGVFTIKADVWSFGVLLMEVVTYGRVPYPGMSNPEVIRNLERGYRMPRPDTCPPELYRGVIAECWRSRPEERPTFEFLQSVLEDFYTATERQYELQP
UniProt P51813: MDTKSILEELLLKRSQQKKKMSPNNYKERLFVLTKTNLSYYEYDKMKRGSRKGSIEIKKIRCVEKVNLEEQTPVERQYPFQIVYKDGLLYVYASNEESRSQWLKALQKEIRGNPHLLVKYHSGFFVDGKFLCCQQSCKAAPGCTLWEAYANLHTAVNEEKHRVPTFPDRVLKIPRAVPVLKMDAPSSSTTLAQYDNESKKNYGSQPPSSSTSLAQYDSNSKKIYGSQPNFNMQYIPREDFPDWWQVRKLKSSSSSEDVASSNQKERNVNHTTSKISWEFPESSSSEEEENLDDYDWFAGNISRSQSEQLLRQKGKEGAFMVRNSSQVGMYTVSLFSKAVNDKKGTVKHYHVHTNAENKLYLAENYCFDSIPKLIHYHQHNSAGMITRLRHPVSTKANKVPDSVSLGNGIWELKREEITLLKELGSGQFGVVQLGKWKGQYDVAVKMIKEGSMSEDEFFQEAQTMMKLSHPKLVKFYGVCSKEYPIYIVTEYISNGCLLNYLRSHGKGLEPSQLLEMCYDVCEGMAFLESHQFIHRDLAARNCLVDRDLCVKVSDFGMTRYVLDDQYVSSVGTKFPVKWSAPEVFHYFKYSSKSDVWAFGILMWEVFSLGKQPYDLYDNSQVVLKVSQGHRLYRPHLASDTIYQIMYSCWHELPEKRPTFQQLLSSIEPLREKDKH
UniProt P15056, whole entry, looked up: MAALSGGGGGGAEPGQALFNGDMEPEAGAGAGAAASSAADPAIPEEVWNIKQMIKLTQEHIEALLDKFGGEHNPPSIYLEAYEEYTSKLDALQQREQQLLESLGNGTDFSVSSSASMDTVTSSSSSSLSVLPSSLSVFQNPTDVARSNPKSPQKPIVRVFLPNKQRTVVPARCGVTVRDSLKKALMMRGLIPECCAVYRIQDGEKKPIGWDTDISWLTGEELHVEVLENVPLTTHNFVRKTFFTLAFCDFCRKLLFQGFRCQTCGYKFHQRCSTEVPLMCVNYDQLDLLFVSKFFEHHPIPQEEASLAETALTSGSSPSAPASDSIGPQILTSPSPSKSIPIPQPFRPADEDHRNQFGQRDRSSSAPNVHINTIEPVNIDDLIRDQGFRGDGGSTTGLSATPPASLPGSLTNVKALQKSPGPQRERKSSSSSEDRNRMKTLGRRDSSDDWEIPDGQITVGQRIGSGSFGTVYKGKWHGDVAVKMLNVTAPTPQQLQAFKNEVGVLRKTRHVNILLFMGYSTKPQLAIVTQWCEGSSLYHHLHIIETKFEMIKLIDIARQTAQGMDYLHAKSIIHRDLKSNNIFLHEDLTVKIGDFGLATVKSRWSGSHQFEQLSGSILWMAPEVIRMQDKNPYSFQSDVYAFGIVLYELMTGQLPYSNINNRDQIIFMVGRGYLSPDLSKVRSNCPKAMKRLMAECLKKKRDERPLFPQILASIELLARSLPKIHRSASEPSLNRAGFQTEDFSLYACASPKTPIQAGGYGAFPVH

Legend:
Test in all cases: kinase-Nluc reporter destabilization hit call (1 = scored as downregulated) (binary); higher = compound decreases kinase abundance
Conditions in all cases: K562; 2-18 h
ABL1 = ABL1 (UniProt P00519)
AKT1 = AKT1 (UniProt P31749)
ALK = ALK (UniProt Q9UM73)
ARAF = ARAF (UniProt P10398)
AURKA = AURKA (UniProt O14965)
AURKB = AURKB (UniProt Q96GD4)
AURKC = AURKC (UniProt Q9UQB9)
BLK = BLK (UniProt P51451)
BMX = BMX (UniProt P51813)
BRAF = BRAF (UniProt P15056)

Measured: kinase-Nluc reporter destabilization hit call

Cc1ccc(-c2csc3ncnc(SCCC(=O)O)c23)cc1 (10 µM)
inactive: ABL1 = 0 | AKT1 = 0 | ALK 0 | ARAF 0 | AURKA 0 | AURKB 0 | AURKC 0 | BLK 0 | BMX 0 | BRAF 0

Nc1n[nH]c2nc(-c3ccc(NS(=O)(=O)c4cc(Cl)ccc4F)cc3)cnc12 (10 µM)
inactive: ABL1 = 0 | AKT1 = 0 | ALK 0 | ARAF 0 | AURKA 0 | AURKB 0 | AURKC 0 | BLK 0 | BMX 0 | BRAF 0

Cc1cc(-c2ccnc(Nc3cnn(C)c3)n2)ccc1CNC(=O)N1CC(OC(C)C)C1 (10 µM)
inactive: ABL1 = 0 | AKT1 = 0 | ALK 0 | ARAF 0 | AURKA 0 | AURKB 0 | AURKC 0 | BLK 0 | BMX 0 | BRAF 0

O=c1cc(-c2cccc3c2Sc2ccccc2S3)oc(N2CCOCC2)c1 (10 µM)
inactive: ABL1 = 0 | AKT1 = 0 | ALK 0 | ARAF 0 | AURKA 0 | AURKB 0 | AURKC 0 | BLK 0 | BMX 0 | BRAF 0

Cn1ncc2cc(-c3cnc(N)c(Cl)c3N3CCC4(CCNC4=O)CC3)ccc21 (10 µM)
inactive: ABL1 = 0 | AKT1 = 0 | ALK 0 | ARAF 0 | AURKA 0 | AURKB 0 | AURKC 0 | BLK 0 | BMX 0 | BRAF 0

Cc1nc(-c2cnn(C)c2)nc2c1[nH]c1ncc(-c3ccc(N4CCN(C)CC4)cc3)cc12 [GNE 220 (hydrochloride)] (10 µM)
inactive: ABL1 = 0 | AKT1 = 0 | ALK 0 | ARAF 0 | AURKA 0 | AURKB 0 | AURKC 0 | BLK 0 | BMX 0 | BRAF 0

Cc1ccc(NC(=O)c2ccnc(C(F)(F)F)c2)cc1-c1cc(OCCO)nc(N2CCOCC2)c1 (10 µM)
inactive: ABL1 = 0 | AKT1 = 0 | ALK 0 | ARAF 0 | AURKA 0 | AURKB 0 | AURKC 0 | BLK 0 | BMX 0 | BRAF 0

O[C@@H]1CO[C@H]2[C@@H]1OC[C@H]2Oc1nc2nc(-c3ccc(-c4ccccc4)cc3)c(Cl)cc2[nH]1 (10 µM)
inactive: ABL1 = 0 | AKT1 = 0 | ALK 0 | ARAF 0 | AURKA 0 | AURKB 0 | AURKC 0 | BLK 0 | BMX 0 | BRAF 0

CCN(CC)c1cc2oc(=O)c(-c3nc4ccccc4o3)cc2cc1C (2.5 µM)
inactive: ABL1 = 0 | AKT1 = 0 | ALK 0 | ARAF 0 | AURKA 0 | AURKB 0 | AURKC 0 | BLK 0 | BMX 0 | BRAF 0

Cc1cc(C)nc(NS(=O)(=O)c2ccc(NC(=S)NC(=O)COc3ccc(Br)cc3Cl)cc2)n1 (2.5 µM)
inactive: ABL1 = 0 | AKT1 = 0 | ALK 0 | ARAF 0 | AURKA 0 | AURKB 0 | AURKC 0 | BLK 0 | BMX 0 | BRAF 0

C[C@@H]1COCCN1c1nc(-c2cnc(N)cc2C(F)F)nc(N2[C@H](C)COC[C@@H]2C)n1 (2.5 µM)
active: ABL1 = 1
inactive: AKT1 = 0 | ALK 0 | ARAF 0 | AURKA 0 | AURKB 0 | AURKC 0 | BLK 0 | BMX 0 | BRAF 0

CC(C)S(=O)(=O)c1ccc2nccc(Nc3ccc4scnc4c3)c2c1 (10 µM)
inactive: ABL1 = 0 | AKT1 = 0 | ALK 0 | ARAF 0 | AURKA 0 | AURKB 0 | AURKC 0 | BLK 0 | BMX 0 | BRAF 0

CC(C)(C[C@H](N)C(=O)O)C(F)F [NV-5138 (hydrochloride)] (10 µM)
inactive: ABL1 = 0 | AKT1 = 0 | ALK 0 | ARAF 0 | AURKA 0 | AURKB 0 | AURKC 0 | BLK 0 | BMX 0 | BRAF 0

Cc1c(-c2ccc(C(N)=O)c3[nH]c4cc(C(C)(C)O)ccc4c23)cccc1-n1cnc2ccccc2c1=O (2.5 µM)
inactive: ABL1 = 0 | AKT1 = 0 | ALK 0 | ARAF 0 | AURKA 0 | AURKB 0 | AURKC 0 | BLK 0 | BMX 0 | BRAF 0

Taken from the listing, two compounds:
Cc1cc(C)nc(NS(=O)(=O)c2ccc(NC(=S)NC(=O)COc3ccc(Br)cc3Cl)cc2)n1 (2.5 µM)
inactive: ABL1 = 0 | AKT1 = 0 | ALK 0 | ARAF 0 | AURKA 0 | AURKB 0 | AURKC 0 | BLK 0 | BMX 0 | BRAF 0

C[C@@H]1COCCN1c1nc(-c2cnc(N)cc2C(F)F)nc(N2[C@H](C)COC[C@@H]2C)n1 (2.5 µM)
active: ABL1 = 1
inactive: AKT1 = 0 | ALK 0 | ARAF 0 | AURKA 0 | AURKB 0 | AURKC 0 | BLK 0 | BMX 0 | BRAF 0

(next part)

Nc1ncnc2c1c(COc1cccc(Cl)c1)nn2C1CCOCC1 (10 µM)
inactive: ABL1 = 0 | AKT1 = 0 | ALK 0 | ARAF 0 | AURKA 0 | AURKB 0 | AURKC 0 | BLK 0 | BMX 0 | BRAF 0

O=Nc1c2[nH]c3ccccc3nc-2c2ccccc12 [IQ-1S (free acid)] (2.5 µM)
inactive: ABL1 = 0 | AKT1 = 0 | ALK 0 | ARAF 0 | AURKA 0 | AURKB 0 | AURKC 0 | BLK 0 | BMX 0 | BRAF 0

O=C1NC(=Nc2c(Cl)cccc2Cl)S/C1=C\c1ccc2nccnc2c1 (2.5 µM)
inactive: ABL1 = 0 | AKT1 = 0 | ALK 0 | ARAF 0 | AURKA 0 | AURKB 0 | AURKC 0 | BLK 0 | BMX 0 | BRAF 0

Nc1c(C(=O)NCc2ccc(C(=O)NCCCC3CCCCC3)cc2)cnn1-c1ccccc1 (2.5 µM)
inactive: ABL1 = 0 | AKT1 = 0 | ALK 0 | ARAF 0 | AURKA 0 | AURKB 0 | AURKC 0 | BLK 0 | BMX 0 | BRAF 0

CN(C)c1nc2c(Br)c(Br)c(Br)c(Br)c2[nH]1 (10 µM)
inactive: ABL1 = 0 | AKT1 = 0 | ALK 0 | ARAF 0 | AURKA 0 | AURKB 0 | AURKC 0 | BLK 0 | BMX 0 | BRAF 0

CC1(C)Cc2c(sc(NC(=S)NC(=O)c3ccccc3)c2C(=O)O)CO1 (10 µM)
inactive: ABL1 = 0 | AKT1 = 0 | ALK 0 | ARAF 0 | AURKA 0 | AURKB 0 | AURKC 0 | BLK 0 | BMX 0 | BRAF 0

Oc1cc(O)c2c(c1)OC1(c3ccc(O)c(O)c3)Oc3cc(O)c4c(c3C2C1O)OC(c1ccc(O)c(O)c1)C(O)C4 (stereo not given) [Procyanidin A1] (10 µM)
inactive: ABL1 = 0 | AKT1 = 0 | ALK 0 | ARAF 0 | AURKA 0 | AURKB 0 | AURKC 0 | BLK 0 | BMX 0 | BRAF 0

COc1cc2ncnc(Nc3ccccc3)c2cc1OC (10 µM)
inactive: ABL1 = 0 | AKT1 = 0 | ALK 0 | ARAF 0 | AURKA 0 | AURKB 0 | AURKC 0 | BLK 0 | BMX 0 | BRAF 0

FC(F)(F)c1ccc(/C=C/c2nc(COc3ccc(CCCCn4ccnn4)cc3)co2)cc1 [Mubritinib] (10 µM)
inactive: ABL1 = 0 | AKT1 = 0 | ALK 0 | ARAF 0 | AURKA 0 | AURKB 0 | AURKC 0 | BLK 0 | BMX 0 | BRAF 0

CN(C)S(=O)(=O)c1ccc2c(c1)/C(=C/c1cc3c([nH]1)CCCC3)C(=O)N2 (2.5 µM)
inactive: ABL1 = 0 | AKT1 = 0 | ALK 0 | ARAF 0 | AURKA 0 | AURKB 0 | AURKC 0 | BLK 0 | BMX 0 | BRAF 0

COc1cc2ncnc(-n3nc(-c4ccccn4)nc3N)c2cc1OC (10 µM)
inactive: ABL1 = 0 | AKT1 = 0 | ALK 0 | ARAF 0 | AURKA 0 | AURKB 0 | AURKC 0 | BLK 0 | BMX 0 | BRAF 0

COc1ncccc1-c1cnn2ccc(N3CCN(C(=O)OC(C)C)CC3)nc12 (10 µM)
inactive: ABL1 = 0 | AKT1 = 0 | ALK 0 | ARAF 0 | AURKA 0 | AURKB 0 | AURKC 0 | BLK 0 | BMX 0 | BRAF 0

Cc1ccc(Oc2nc3cc(-c4ccc(-c5ccccc5)cc4)c(Cl)cc3[nH]2)cc1C(=O)O (10 µM)
inactive: ABL1 = 0 | AKT1 = 0 | ALK 0 | ARAF 0 | AURKA 0 | AURKB 0 | AURKC 0 | BLK 0 | BMX 0 | BRAF 0

Cc1ccc(NC(=O)c2ccc(CN(CCN(C)C)C(=O)c3cccnc3)cc2)cc1Nc1nccc(-c2cccnc2)n1 [PDGFRα kinase inhibitor 1] (10 µM)
inactive: ABL1 = 0 | AKT1 = 0 | ALK 0 | ARAF 0 | AURKA 0 | AURKB 0 | AURKC 0 | BLK 0 | BMX 0 | BRAF 0
